Experimental data from PubChem BioAssay AID2685 (National Center for Advancing Translational Sciences (NCATS), 2010).
Some of the results follow. Further columns of the screen follow, without active or inactive calls. Most of these compounds were active or inconclusive in the main read-out, so they are no random draw. Potencies come from curve fits of mixed quality, noted in brackets.

Assay: qHTS Assay for Lipid Storage Modulators in Drosophila S3 Cells;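 for cell number change: cells counted by Cell Tracker Red CMTPX staining in the red channel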
Conditions: BODIPY lipid droplet fluorescence, 18-24 h; for cell number change: measured here: cell count max response, cells fed with added oleic acid
Procedure, shortened: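 Laser-scanning cytometry quantifies lipid droplet accumulation (500–530 nm total intensity; droplet/cell object ratio) in oleic acid-fed (400 uM added) Drosophila S3 cells treated with a concentration series. 20 uM Triacsin C defined 100% inhibition.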

[1] = measured here: cell number channel AC50, cells fed with added oleic acid
[2] = measured here: lipid fluorescence (Fed channel) AC50, cells fed with added oleic acid

SMILES	cell number change	AC50 [1]	AC50 [2]
O=[N+]([O-])c1ccc(N2CCN(c3ccc([N+](=O)[O-])cc3CO)CC2)c(CO)c1	-42.6%	32.6 µM [falling, single point]	
Cn1cnc([N+](=O)[O-])c1Cl	-10.6%	0.0259 µM [falling, full curve, poor fit]	3.26 µM [falling, full curve]
Cc1ccc(C)c(OCCC(=O)OCC(=O)NCc2ccccc2)c1	-20.5%	0.116 µM [falling, full curve, poor fit]	
Cc1ccc(CC(=O)CCc2ccccc2)cc1	4.95%		0.58 µM [rising, single point]
CCOC(=O)C1C(=O)C=C(/C=C/c2ccccc2)CC1c1ccc(Cl)cc1 (stereo not drawn)	-38.8%	16.4 µM [falling, single point]	
Cc1ccc(CNCC(O)(c2ccccc2)c2ccc(Cl)cc2)cc1 (stereo not drawn)	-42.8%	1.16 µM [falling, full curve, poor fit]	
COc1ccc(N2C(=O)CCC(C(=O)Nc3cccc(C)n3)C2c2ccc(OC)c(OC)c2)cc1 (stereo not drawn)		4.61 µM [falling, single point]	
CCOC(=O)c1ccccc1NC(=O)CC1SC(=NC)N(C)C1=O (stereo not drawn)	27.5%		2.31 µM [rising, partial curve]
CCN(CC)S(=O)(=O)c1cccc(C(=O)OCC(=O)Nc2ccc3c(c2)c2ccccc2n3CC)c1	19.4%		5.8 µM [rising, single point]
CC(C)Cc1nnc(NC(=O)CCC(=O)NC2CC2)s1	-11.6%		0.517 µM [falling, full curve, poor fit]
CCOC(=O)c1csc(NC(=O)CSc2nnnn2-c2ccc(OC)c(OC)c2)n1	-13.3%		18.4 µM [falling, partial curve]
CCOC(=O)[C@@H]1[C@H]2COc3ccccc3[C@H]2N2C(=O)N(c3cccc(F)c3)C(=O)[C@]12C	19.2%		29.1 µM [rising, single point]
O=C(O)COCC(=O)NCc1nc(-c2ccc(C(F)(F)F)cc2)no1	-30.2%	29.1 µM [falling, single point]	
CCOC(=O)N1CCN(C(=O)c2ccc(OC)c(S(=O)(=O)N3CCOCC3)c2)CC1			0.00651 µM [falling, full curve, poor fit]
COCCNC(=O)C(c1ccc(Cl)cc1)N(CCOC)C(=O)CCC(=O)Nc1ccccn1 (stereo not drawn)	-1.28%		
Cc1ccc(C)c(SCC(=O)Nc2ccc(C)c(S(=O)(=O)N3CCOCC3)c2)c1	-3.22%		
COC(=O)c1nn(-c2ccc(C)cc2)ccc1=O	-60.3%		
Cc1c(C#N)c2ccccc2n1C	-3.19%		
CC(=O)Nc1ccc(S(=O)(=O)NCCC(=O)OCC(=O)N2CCN(C(=O)c3ccco3)CC2)cc1	12.3%		
O=C(NN=C1CCCC1)c1ccccc1OCCOc1ccccc1	19.1%		
O=C(CSc1nnc(-c2ccco2)o1)NC1CCCCCC1	6.72%		2.06 µM [falling, partial curve]

SMILES	cell number change	AC50 [1]	AC50 [2]
COc1ccc(OC)c(C2C(C(=O)Nc3nc4ccccc4s3)=C(C)NC3=C2C(=O)CCC3)c1 (stereo not drawn)	-24%		29.1 µM [falling, single point]
CCC(=O)c1ccc(OCC(=O)N2CCN(C(=O)c3ccccc3)CC2)cc1	4.96%		14.6 µM [rising, partial curve]
COc1ccc(Br)c(C(=O)NCCC(C)C)c1	9%		10.3 µM [rising, partial curve]
COc1cc(C)c(NC(=O)COc2ccc3c(c2)OCO3)cc1C	23.9%		
COc1ccccc1C(=O)NC(=O)COC(=O)CCS(=O)(=O)c1ccc(C)cc1	-7.8%		
Cc1sc2ncnc(SCC(=O)Nc3ncccc3O)c2c1C	2.27%		4.11 µM [rising, single point]
COc1cccc(CNC(=O)c2cccc(NC(=O)CC3SC(N4CCCCC4)=NC3=O)c2)c1 (stereo not drawn)	7.46%		0.731 µM [rising, single point]
CCOC(=O)c1cn(CC)c2cc(F)c(F)cc2c1=O	6.55%		10.3 µM [rising, partial curve, poor fit]
COC(CNC(=O)CCc1c(C)nc2c(-c3ccc(F)cc3)c(C)nn2c1C)OC	40.9%	4.61 µM [rising, full curve]	3.66 µM [rising, partial curve]
CC(C)NC1CS(=O)(=O)CC1O (stereo not drawn)	-43.1%	29.1 µM [falling, single point]	
Cc1nn2c(=O)cc(CSc3ccccc3NC(=O)c3ccccc3)nc2s1	27.1%	3.66 µM [falling, single point]	0.259 µM [falling, full curve]
Cc1ccc(NCC(=O)N/N=C/c2cc3ccccc3nc2Cl)cc1	-37%	8.2 µM [falling, partial curve]	13 µM [falling, partial curve]
CC1(C)Cc2nc3oc4c(=O)n(CC(=O)Nc5cccc(Cl)c5)cnc4c3cc2CO1	-6.97%		0.92 µM [falling, partial curve]
NC(=O)c1ccc(CN2CCc3ccccc3C2)cc1	-7.41%		6.51 µM [falling, single point]
CCOc1ccccc1NC(=O)CSc1nnnn1-c1ccc(C(=O)OC)cc1	17.3%		10.3 µM [rising, partial curve]
FCCCOc1ccc(/C=N/OCc2ccc(Cl)cc2)cc1	31.6%	32.6 µM [rising, single point]	1.84 µM [rising, partial curve, poor fit]
Cc1cccc(C(=O)NC(C(=O)Nc2nc(-c3ccccn3)cs2)C(C)C)c1 (stereo not drawn)	10.7%	3.26 µM [rising, single point]	0.0291 µM [rising, full curve, poor fit]
Cc1cccc(N/N=C(\C#N)S(=O)(=O)C(C)(C)C)c1	18.1%		
O=C1OCC=C1NNC(=O)c1cccnc1	-19.7%		6.51 µM [rising, partial curve, poor fit]
CCOc1ccc(NC(=O)NCCN2CCN(c3cccc(C)c3C)CC2)cc1	-4.5%		3.26 µM [rising, full curve]
Cc1ccc(NC(=O)C(=O)NCCCN2CCOCC2)c(C)c1	15.7%		11.6 µM [rising, single point]

Part of the list above in a different format.

| SMILES | cell number change | AC50 [1] | AC50 [2] |
| --- | --- | --- | --- |
| Cc1nn2c(=O)cc(CSc3ccccc3NC(=O)c3ccccc3)nc2s1 | 27.1% | 3.66 µM [falling, single point] | 0.259 µM [falling, full curve] |
| NC(=O)c1ccc(CN2CCc3ccccc3C2)cc1 | -7.41% |  | 6.51 µM [falling, single point] |

Continued.

SMILES	cell number change	AC50 [1]	AC50 [2]
Cc1cccc2sc(N(CCCN(C)C)C(=O)c3nc4ccccc4s3)nc12	11.2%		0.651 µM [falling, partial curve, poor fit]
Cc1ccccc1-c1ccccc1N	-25.3%		1.16 µM [falling, full curve]
Cc1cc(C)c(NC(=O)CCCC(=O)O)c(Cl)c1	22%		29.1 µM [falling, single point]
CN(NC(=O)c1ccccc1)c1nc2ccccc2nc1C(F)(F)F	-13.1%	1.03 µM [rising, partial curve]	0.731 µM [rising, partial curve]
CC(C)c1cc(NC(=O)CSc2nnc(-c3ccccc3F)n2C)on1	-7.17%		2.06 µM [falling, partial curve]
CCOc1ccc(C(=O)CN2CCN(S(=O)(=O)c3ccc(Br)cc3)CC2)cc1	47.5%	29.1 µM [rising, single point]	
CCN(CC)CCC(=O)Nc1cccc2c1C(=O)c1ccccc1C2=O	-38.9%		13 µM [falling, partial curve]
CCOc1ccccc1-c1n[nH]c(=S)o1			0.92 µM [falling, full curve]
COc1ccc(CCNC(=O)c2ccccc2NS(=O)(=O)c2c(F)cccc2F)cc1	3.95%		
Cc1cccc(C)c1NC(=O)COC(=O)c1ccccc1O	13.8%		0.103 µM [rising, partial curve, poor fit]
FC(F)(F)c1cc(-c2ccco2)nc(NCc2ccc(Cl)cc2)n1	-24.4%		6.51 µM [rising, full curve]
COc1ccc(NC2CCCN(C(=O)Cn3ccc(C)n3)C2)cc1OC (stereo not drawn)	1.36%		
COc1ccc(Cn2c(=O)[nH]c3cc(C(=O)NCCCN4CCCCCC4)ccc3c2=O)cc1	70.6%		
Cc1cccc(N2CN(Cc3ccco3)CNC2=S)c1C	14%		20.6 µM [rising, single point]
Cc1cc(N2CCOCC2)nc(SCC(=O)OCc2ccccc2)n1	21%		32.6 µM [rising, single point]
Cc1ccc(C(O)Cn2nc(C)cc2C)cc1 (stereo not drawn)	-19.3%		0.411 µM [rising, full curve, poor fit]
O=C(COc1ccc(Cl)cc1)NCc1nnc(SCC(=O)Nc2ccccc2)o1		6.51 µM [falling, single point]	6.51 µM [falling, single point]
COc1ccc(NC(=O)COc2ccc(N(C)S(=O)(=O)c3ccc(Cl)cc3)cc2)cc1	-24.6%		1.84 µM [rising, partial curve]
O=C(O)CC12CC3CC(C1)CC(n1ncc(NCc4ccc(F)cc4Cl)c(Cl)c1=O)(C3)C2	-16%	0.461 µM [falling, full curve, poor fit]	
CCCc1cc(=O)oc2c(C)c(OCC(=O)N3CCC[C@@H]3C(=O)O)ccc12	24.3%	0.146 µM [rising, full curve, poor fit]	
O=C(O)c1c2c(nc3ccccc13)/C(=C/c1cccc([N+](=O)[O-])c1)CCC2	10.5%		29.1 µM [rising, single point]

A few values from the list.
Entry of `O=C(O)CC12CC3CC(C1)CC(n1ncc(NCc4ccc(F)cc4Cl)c(Cl)c1=O)(C3)C2` under cell number change: -16%
Entry of `Cc1cc(N2CCOCC2)nc(SCC(=O)OCc2ccccc2)n1` under AC50 [2]: 32.6 µM [rising, single point]
